Data as given in US9492418B2, “Inhibitors of PFKFB3 for cancer therapy” (Board of Supervisors of Louisiana State University And …, priority 2011, dated 2016).
Some of these results come from one statement about several compounds together.

System: HeLa cells
Test: Lactate secretion (lactate oxidase-based assay)
Type: cell-based, human
Conditions: 25 μM

O=c1cc(-c2ccc(O)cc2)oc2c(O)c(O)c(O)c(O)c12 [Compound N4A, 5,6,7,8-tetrahydroxy-2-(4-hydroxyphenyl)chromene-4-one]
decrease in lactate secretion: greater than 30%
